“And” between values parts separate entries of the source, which are not always exact repeats. Identical values can stand only once. ± gives the standard deviation of the averaged measurements. The entries are a selection whose mix differs from that of the whole data set. Single values are uncertain here, since repeats match poorly.
System: FaDu
Assay: mitochondrial oxygen consumption rate normalised to cell number, Z score over the library; higher = higher oxygen consumption (negative = OCR reduction)
Details: treatment time 24 h, assay medium: 5 mM galactose, 5 mM pyruvate, 4 mM glutamine
Protocol: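 Primary screen: FaDu cells were incubated 24 h with Pharmakon 1600 / TDI oncology set compounds at 2 or 10 uM. Mitochondrial-specific OCR (basal minus 2 uM antimycin A) was measured on a Seahorse XF96 in assay medium with 5 mM galactose, 5 mM pyruvate and 4 mM glutamine, then corrected for Hoechst cell number and expressed as a Z score […]. Compounds that cut cell number by >66% were excluded. Two repeats.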

SMILES | mitochondrial oxygen consumption rate normalised (2 µM) | mitochondrial oxygen consumption rate normalised (10 µM)
[Ca+2].[Cl-].[Cl-] | 1.07 ± 0.35 | –
OC1(c2ccc(Cl)c(C(F)(F)F)c2)CCN(CCCC(c2ccc(F)cc2)c2ccc(F)cc2)CC1 | 0.316 ± 0.41 | –
C[C@@H]1C[C@H]2[C@@H]3CCC4=CC(=O)C=C[C@]4(C)[C@@]3(F)[C@@H](O)C[C@]2(C)[C@@]1(O)C(=O)CO | 0.0776 ± 0.95 | –
CCCCNc1ccc(C(=O)OCCOCCOCCOCCOCCOCCOCCOCCOCCOC)cc1 | 1.25 ± 0.76 | –
CC(C)(Oc1ccc(C(=O)c2ccc(Cl)cc2)cc1)C(=O)O | -0.0736 ± 0.75 | –
Cc1cc(/C=C/c2ccc3cc(N(C)C)ccc3[n+]2C)c(C)n1-c1ccccc1 | -6.776 ± 0.056 | –
CCn1nc(C(=O)O)c(=O)c2cc3c(cc21)OCO3 | -0.365 ± 0.2 | –
CC1=Nc2ccc(Cl)cc2S(=O)(=O)N1 | -0.196 ± 0.23 | –
CO[C@@]12[C@H](COC(N)=O)C3=C(C(=O)C(C)=C(N)C3=O)N1C[C@@H]1N[C@@H]12 | -1.67 and -1.32 | –
CC(C(=O)O)c1ccc(N2Cc3ccccc3C2=O)cc1 (configuration not stated) | -0.425 ± 0.52 | –
CN(C)CCOc1ccc(/C(=C(/CCCl)c2ccccc2)c2ccccc2)cc1 | -0.0358 ± 0.092 | –
CCN1CCN(C(=O)N[C@@H](C(=O)N[C@@H]2C(=O)N3C(C(=O)O)=C(CSc4nnnn4C)CS[C@H]23)c2ccc(O)cc2)C(=O)C1=O | 0.627 ± 0.53 | –
O=C(NCCO[N+](=O)[O-])c1cccnc1 | 0.359 ± 0.018 | –
Cc1ccc(Cl)c(Nc2ccccc2C(=O)O)c1Cl | 0.732 ± 0.15 | –
C[C@H]1C[C@H]2[C@@H]3CCC4=CC(=O)C=C[C@]4(C)[C@@]3(F)[C@@H](O)C[C@]2(C)[C@@]1(O)C(=O)CO | -0.172 ± 0.22 | –
Oc1ccc(OCc2ccccc2)cc1 | 0.393 ± 0.2 | –
CN(C)[C@@H]1C(O)=C(C(=O)NCN2CCCC2)C(=O)[C@@]2(O)C(O)=C3C(=O)c4c(O)cccc4[C@@](C)(O)[C@H]3C[C@@H]12 | -0.77 ± 0.28 | –
Cc1c(N(C)CS(=O)(=O)O)c(=O)n(-c2ccccc2)n1C | 1.11 ± 1.4 | –
O=S(=O)([O-])NC1CCCCC1.[Na+] | -3.27 ± 0.22 | –
CCN(CC)CCc1nc(-c2ccccc2)no1 | -0.224 ± 0.42 | –
CCc1cn([C@H]2C[C@H](O)[C@@H](CO)O2)c(=O)[nH]c1=O | 1.3 ± 0.53 | –
CC(C)NC[C@@H](O)COc1cccc2ccccc12 | 0.514 ± 0.96 | –
O=S(=O)(O)NC1CCCCC1 | 0.957 ± 1.4 | –
O=c1oc2ccccc2c(O)c1Cc1c(O)c2ccccc2oc1=O | -0.00856 ± 1.6 | –
CN1CCN(CCCN2c3ccccc3Sc3ccc(Cl)cc32)CC1 | 1.2 ± 0.69 | –

SMILES | mitochondrial oxygen consumption rate normalised (2 µM) | mitochondrial oxygen consumption rate normalised (10 µM)
NCC(O)CC(=O)O (configuration not stated) | -0.0811 ± 0.86 | –
NNc1nncc2ccccc12 | -0.191 ± 0.69 | –
CC(=O)OCC(CCn1cnc2cnc(N)nc21)COC(C)=O | 0.244 ± 0.75 | –
C[C@H](CCC(=O)O)[C@H]1CC[C@H]2[C@@H]3[C@H](O)C[C@@H]4C[C@H](O)CC[C@]4(C)[C@H]3CC[C@]12C | 0.0511 ± 0.2 | –
C1CNCCN1 | 1.34 ± 0.45 | –
COc1c2occc2c(OC)c2c(=O)cc(C)oc12 | -0.212 ± 1.1 | –
CC(C)[C@H](N)C(=O)OCC(CO)OCn1cnc2c(=O)nc(N)[nH]c21 (some centres not stated) | -0.121 ± 0.18 | 1.37 ± 0.77
NC(=O)c1ccc([N+](=O)[O-])cc1Cl | -0.18 ± 0.84 | –
O=C1OCCN1/N=C/c1ccc([N+](=O)[O-])o1 | -0.505 ± 0.48 | –
CCC(=O)O[C@]1(C(=O)CCl)[C@@H](C)C[C@H]2[C@@H]3CCC4=CC(=O)C=C[C@]4(C)[C@@]3(F)[C@@H](O)C[C@@]21C | 0.48 ± 1.3 | –
c1ccc([C@H]2CN3CCSC3=N2)cc1 | 0.973 ± 0.6 | –
Cc1c(O)c(=O)ccn1C | -0.293 ± 0.87 | –
COc1cc([C@@H]2c3cc4c(cc3[C@@H](O[C@@H]3O[C@@H]5CO[C@@H](C)O[C@H]5[C@H](O)[C@H]3O)[C@H]3COC(=O)[C@H]23)OCO4)cc(OC)c1O | -0.58 ± 0.35 | –
COc1cc([C@@H]2c3cc4c(cc3[C@@H](O[C@@H]3O[C@@H]5CO[C@@H](C)O[C@H]5[C@H](O)[C@H]3O)[C@H]3COC(=O)[C@H]23)OCO4)cc(OC)c1O [Etoposide] | 1.04 ± 0.18 | –
COc1ccccc1OCC(O)CN1CCN(CC(=O)Nc2c(C)cccc2C)CC1 (configuration not stated) | -0.199 ± 1.1 | –
CCCNCC(O)COc1ccccc1C(=O)CCc1ccccc1 (configuration not stated) | -0.722 ± 0.35 | –
NC(=O)C(c1ccccc1)(c1ccccc1)[C@@H]1CCN(CCc2ccc3c(c2)CCO3)C1 | -0.0494 ± 0.29 | –
C[C@H]1C[C@@H]2[C@H]([C@@H](O)C[C@@]3(C)[C@H]2CC[C@]3(O)C(=O)CO)[C@@]2(C)C=CC(=O)C=C12 | -0.254 ± 0.34 | –
O=C(O)c1cc(-c2ccccc2)nc2ccccc12 | -0.284 ± 0.97 | 0.349 ± 0.05
CC(=O)O[C@]1(C(C)=O)CC[C@H]2[C@@H]3C[C@H](C)C4=CC(=O)CC[C@]4(C)[C@H]3CC[C@@]21C | -1.01 ± 0.12 | –
CC(C)NCC(O)c1ccc2ccccc2c1 (configuration not stated) | 0.0225 ± 0.0052 | –
CN(C)c1nc(N(C)C)nc(N(C)C)n1 [Altretamine] | 0.603 ± 0.096 | –
CN(C)c1nc(N(C)C)nc(N(C)C)n1 | 0.84 ± 0.26 | –
CCN[C@H]1CN(CCCOC)S(=O)(=O)c2sc(S(N)(=O)=O)cc21 | -0.221 ± 0.41 | –
CC(=O)OCC(=O)[C@@]1(O)CC[C@H]2[C@@H]3CCC4=CC(=O)CC[C@]4(C)[C@H]3[C@@H](O)C[C@@]21C | -0.429 ± 1.2 | –

SMILES | mitochondrial oxygen consumption rate normalised (2 µM) | mitochondrial oxygen consumption rate normalised (10 µM)
CC(C)c1c(C(=O)Nc2ccccc2)c(-c2ccccc2)c(-c2ccc(F)cc2)n1CC[C@@H](O)C[C@@H](O)CC(=O)O | -0.714 ± 0.29 | –
Cc1ncc(C[n+]2csc(CCO)c2C)c(N)n1 | -0.142 ± 0.0069 | 1.53 ± 0.67
CCCCCCCCCCCCCCCC(=O)OC/C=C(C)/C=C/C=C(C)/C=C/C1=C(C)CCCC1(C)C | 1.13 ± 1.9 | –
C=CC(N)CCC(=O)O (configuration not stated) | -0.583 ± 0.42 | –
NS(=O)(=O)c1cc(C2(O)NC(=O)c3ccccc32)ccc1Cl (configuration not stated) | 0.0587 ± 0.64 | –
CC(=O)OCC(=O)[C@@]1(O)CC[C@H]2[C@@H]3CCC4=CC(=O)CC[C@]4(C)[C@@]3(F)[C@@H](O)C[C@@]21C | -0.823 ± 0.11 | –
O=C(O)CCCCCCCC(=O)O | -0.378 ± 0.25 | –
Cc1ccc(C(=O)c2ccc(CC(=O)O)n2C)cc1 | -0.0224 ± 0.56 | –
CCCCN(CCCC)CCCOC(=O)c1ccc(N)cc1 | 0.561 ± 1.2 | –
FC(F)(F)C(Cl)Br (configuration not stated) | 0.397 ± 0.24 | –
O=C(O)CN1C(=O)c2cccc3cccc(c23)C1=O | -0.572 ± 0.49 | –
CC(=O)OCC(=O)[C@@]1(O)CC[C@H]2[C@@H]3CCC4=CC(=O)C=C[C@]4(C)[C@@]3(Cl)[C@@H](Cl)C[C@@]21C | -0.257 ± 0.54 | –
C[C@@H](O)CN(CCN(C[C@@H](C)O)C[C@@H](C)O)C[C@@H](C)O | 0.503 ± 0.66 | –
CC[N+](C)(C)c1cccc(O)c1 | 0.808 ± 0.24 | –
CC(=O)[C@@]1(O)CC[C@H]2[C@@H]3C=C(Cl)C4=CC(=O)[C@@H]5C[C@@H]5[C@]4(C)[C@H]3CC[C@@]21C | 0.24 ± 0.47 | -0.129 ± 1.6
O.O.O=C([O-])CN(CCN(CC(=O)[O-])CC(=O)O)CC(=O)O.[Na+].[Na+] | 0.428 ± 0.18 | –
Nc1[nH]cnc2ncnc1-2 | 0.219 ± 0.19 | –
OC(Cn1cncn1)(Cn1cncn1)c1ccc(F)cc1F | -0.421 ± 0.3 | –
CCCOc1cc(N)ccc1C(=O)OCCN(CC)CC | -0.479 ± 0.087 | –
NCCc1c[nH]cn1 | -0.346 ± 1.1 | –
N=C(N)NC(=N)NCCc1ccccc1 | 0.092 ± 0.93 | –
CN1CCC(=C2c3ccccc3C=Cc3ccccc32)CC1 | 0.573 ± 0.25 | –
CN1CCN(CC/C=C2/c3ccccc3Sc3ccc(S(=O)(=O)N(C)C)cc32)CC1 | 0.401 ± 0.032 | –
CC(C)(CO)[C@@H](O)C(=O)NCCC(=O)NCCSSCCNC(=O)CCNC(=O)[C@H](O)C(C)(C)CO | -1.04 ± 0.035 | –
C[C@H]1O[C@H](O[C@H]2[C@H](O)[C@@H](O)[C@@H](O[C@H]3[C@H](O)[C@@H](O)C(O)O[C@@H]3CO)O[C@@H]2CO)[C@H](O)[C@@H](O)[C@@H]1N[C@H]1C=C(CO)[C@@H](O)[C@H](O)[C@H]1O (some centres not stated) | 0.404 ± 0.73 | –

SMILES | mitochondrial oxygen consumption rate normalised (2 µM) | mitochondrial oxygen consumption rate normalised (10 µM)
Cc1nccnc1N1CCCCC1 | -0.204 ± 0.42 | –
NNCCc1ccccc1 | -0.257 ± 0.98 | –
C=C1CC[C@H](O)C/C1=C/C=C1\CCC[C@]2(C)[C@@H]([C@H](C)CCCC(C)C)CC[C@@H]12 | -0.0398 ± 0.19 | –
CC(Cc1cccc(C(F)(F)F)c1)NCCOC(=O)c1ccccc1 (configuration not stated) | 0.0628 ± 0.28 | –
CCCc1cc(C(N)=S)ccn1 | 0.273 ± 0.17 | –
CC(=O)S[C@@H]1CC2=CC(=O)CC[C@]2(C)[C@H]2CC[C@@]3(C)[C@@H](CC[C@@]34CCC(=O)O4)[C@H]12 | -1.11 ± 0.088 | –
Oc1ccc2ccccc2c1 [beta-NAPHTHOL] | -0.745 ± 0.92 | –
CC(C)CC(N)=O | 0.411 ± 0.072 | 0.337 ± 0.48
CN1CCN(C2=Nc3ccccc3Oc3ccc(Cl)cc32)CC1 | -0.643 ± 0.19 | –
NCc1ccccc1CC(=O)N[C@@H]1C(=O)N2C(C(=O)O)=C(CSc3nnnn3CC(=O)O)CS[C@H]12 | -0.306 ± 0.43 | –
N=C(NCCCCCCNC(=N)NC(=N)Nc1ccc(Cl)cc1)NC(=N)Nc1ccc(Cl)cc1 | -3.21 ± 0.35 | –
COc1c2occc2cc2ccc(=O)oc12 | -1.61 ± 0.69 | –
COc1c2occc2cc2ccc(=O)oc12 [Methoxsalen] | 0.78 ± 0.14 | –
N#Cc1ccc(C(c2ccc(C#N)cc2)n2cncn2)cc1 | 0.437 ± 0.059 | –
N#Cc1ccc(C(c2ccc(C#N)cc2)n2cncn2)cc1 [Letrozole] | 0.658 ± 0.17 | –
Clc1ccc(CCC(Cn2ccnc2)Sc2c(Cl)cccc2Cl)cc1 (configuration not stated) | -0.904 ± 0.79 | –
C[N+]1(C)CCC(OC(=O)C(O)(c2ccccc2)C2CCCC2)C1 (configuration not stated) | -0.712 ± 1.7 | –
O=C(O)c1cn(-c2ccc(F)cc2)c2cc(N3CCNCC3)c(F)cc2c1=O | -0.00615 ± 1.2 | –
O=C(O)Cc1ccc(-c2ccccc2)cc1 | -0.546 ± 1.1 | –
C[C@@H]1C[C@H]2[C@@H]3C[C@H](F)C4=CC(=O)C=C[C@]4(C)[C@@]3(F)[C@@H](O)C[C@]2(C)[C@@]1(O)C(=O)CO | 2.28 ± 0.38 | –
CC(=O)OCC(=O)[C@@]1(O)[C@@H](C)C[C@H]2[C@@H]3CCC4=CC(=O)C=C[C@]4(C)[C@@]3(F)[C@@H](O)C[C@@]21C | -0.716 ± 0.39 | –
CO[C@H]1C[C@H](O[C@H]2[C@H](C)O[C@@H](O[C@@H]3/C(C)=C/C[C@@H]4C[C@@H](C[C@]5(C=C[C@H](C)[C@@H](C6CCCCC6)O5)O4)OC(=O)[C@@H]4C=C(C)[C@@H](O)[C@H]5OC/C(=C\C=C\[C@@H]3C)[C@]54O)C[C@@H]2OC)O[C@@H](C)[C@@H]1O | 0.388 ± 0.33 | –

— the supplement of paper PMC4962491
